For at least one entry, the source does not settle the construct or the ends of the probe. For some assays here: The comparison behind a weaker result is the experiment's own reference, which may not be listed here. For some assays here: At least one verdict rests on a figure or table, not on a statement of the authors.
What was measured:
GST-hnRNPA1 = GST-hnRNPA1 (UniProt P09651); assay: EMSA; conditions: Li+ buffer, protein:RNA 10:1; EMSA: 50 mM Tris-HCl pH 7.4, 50 mM KCl, 1 mM EDTA, 1 mM Na3VO4, 5 mM NaF, 1 mM DTT, 8% glycerol, 25 C, 30 nM RNA; recombinant protein; protein details: GST (N-terminal, pGEX4T1); label: Cy5.5 5'
UP1 = UP1 (UniProt P09651); assay: ITC; conditions: 50 mM KCl, one-site fit, Kd not in material, ITC: 10 mM KPi, 25 C, 8 uM UP1, recombinant protein

By UniProt entry, the sequences of proteins in these tests, tags left out. Residues count along the entry.
UniProt P09651, 1-196: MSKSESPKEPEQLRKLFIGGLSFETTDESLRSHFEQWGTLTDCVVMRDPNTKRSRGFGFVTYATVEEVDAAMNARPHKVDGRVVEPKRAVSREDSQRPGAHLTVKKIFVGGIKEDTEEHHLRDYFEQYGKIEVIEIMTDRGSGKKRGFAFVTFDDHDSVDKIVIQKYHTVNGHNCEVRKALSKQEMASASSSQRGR

Sequence: GCAGCGGCGGCGGCAGUGGCGGCGGCGAAGGUGGCGGCGGC [41-mer 5'UTR (utr-c + utr-z)]
- binding result (GST-hnRNPA1): binds more weakly

Sequence: GGCGGCGGAGG [utr-1]
- binding result (UP1): binds
